# Measured values as given in PMC7663799, “Endocytosis and Trafficking of Heparan Sulfate Proteoglycans in Triple-Negative Breast Cancer Cells Unraveled with a Polycationic Peptide” (International Journal of Molecular Sciences, 2020).
# Legend:
# Assay type in all cases: cell-based, human
# [1] = tested on: heparan sulfate (10E4 epitope); assay: Colocalization of NT4 with anti-HS antibody clone 10E4, confocal immunofluorescence; details: MDA-MB-231
# [2] = tested on: caveolin; assay: Colocalization of NT4 with anti-caveolin antibody; details: MDA-MB-231
# [3] = tested on: clathrin; assay: Colocalization of NT4 with anti-clathrin antibody; details: MDA-MB-231, 30 min incubation
# [4] = tested on: macropinocytosis in MDA-MB-231 cells; assay: Colocalization of NT4 with rhodamine-labelled dextran (macropinocytosis); details: n = 10
# [5] = tested on: EEA1; assay: Colocalization of NT4 with EEA1; details: MDA-MB-231
# [6] = tested on: Rab7; assay: Colocalization of NT4 with Rab7; details: MDA-MB-231
# [7] = tested on: Rab11; assay: Colocalization of NT4 with Rab11; details: MDA-MB-231, 1 h incubation
substance,measurement,setting,value
(pyELYENKPRRPYIL)4K2K-beta-Ala [NT4],mean Pearson correlation of NT4 with anti-HS antibody 10E4,[1]; three experiments and three randomly taken fields,0.6561 (±0.03)
same,overlap rate of NT4 with anti-HS antibody 10E4,"[1]; ±4.41%, n = 9, three experiments, three random fields",71%
same,colocalization of NT4 with caveolin,[2]; after 1 h incubation at 37 °C,below 30%
same,Pearson coefficient of NT4 with caveolin,"[2]; first 30 min at 37 °C, n = 12",0.4976 (±0.08)
same,colocalization rate of NT4 with caveolin,"[2]; first 30 min at 37 °C, ±12.03%, n = 12",38%
same,colocalization rate of NT4 with clathrin,[3]; n = 9,28%
same,Pearson coefficient of NT4 with clathrin,"[3]; ±0.1, n = 9",0.4051
same,colocalization of NT4 with dextran,"[4]; 5 mg/mL Rhodamine B isothiocyanate-Dextran, ±8.31%",26.44%
same,Pearson coefficient of NT4 with dextran,[4]; rhodamine-labelled dextran,0.5339 (±0.11)
same,Pearson coefficient of NT4 with EEA1,"[5]; n = 14, SD ± 0.0050",0.4801
same,colocalization rate of NT4 with EEA1,"[5]; n = 14, SD ± 3",33%
same,Pearson coefficient of NT4 with Rab7,"[6]; after 15 min at 37 °C, n = 10, SD ± 0.03",0.33
same,colocalization of NT4 with Rab7,"[6]; after 15 min at 37 °C, n = 10, SD ± 4",19%
same,Pearson coefficient of NT4 with Rab7,"[6]; after 1 h at 37 °C, n = 10, SD ± 0.07",0.49
same,colocalization of NT4 with Rab7,"[6]; after 1 h at 37 °C, n = 10, SD ± 11",42%
same,Pearson coefficient of NT4 with Rab11,"[7]; n = 6, SD ± 0.039",0.38
same,colocalization rate of NT4 with Rab11,"[7]; n = 6, SD ± 5.89",24%
